Reference: publication PMC7822176, “Pursuing the Complexity of Alzheimer’s Disease: Discovery of Fluoren-9-Amines as Selective Butyrylcholinesterase Inhibitors and N-Methyl-D-Aspartate Receptor Antagonists” (Biomolecules, 2020)

What was measured:
in vitro = conditions: human
Method: (§1) The D3 assay evaluates the ability of compounds to diffuse from the donor compartment through the D3/hCMEC cell membrane into the acceptor compartment. The D3 cells were seeded on a PET membrane (area 1.12 cm^2) with 3-µm pores of the 12-well plates with 12-mm inserts. […] The donor solution (750 µL) was added to the donor compartment (insert), and the same volume of Opti-MEM was added into the acceptor. The concentration of the drug in both compartments was measured by UV-VIS spectrophotometry in 5, 15, 30, and 60 min of incubation in triplicates. The apparent permeability coefficient (Papp) was calculated from the concentration ratios. Tightness of the D3 monolayer was conducted by the fluorescein isothiocyanate (FITC) test after each experiment. […] (1) Papp= dC/dt × Vr/A × C0 • A: area of the well/cell monolayer, • dC/dt: amount in the receiver compartment in given time, • Vr: volume of the receiver compartment, and • C0: the initial concentration of tested compounds.

hCMEC/D3 cell monolayer = test: in vitro
Method: as §1

NS(=O)(=O)c1cc(C(=O)O)c(NCc2ccco2)cc1Cl [Furosemide]
Papp (in vitro): 13.9 ± 0.92 ×10⁻⁶ cm/s | CNS (+/−) (hCMEC/D3 cell monolayer): CNS −
